Some of the results follow. Further columns of the screen follow, without active or inactive calls. Compounds called inactive in the main read-out are mostly missing here. The note in brackets gives the kind of curve behind each potency; many fits are weak.
Test: qHTS Assay for Lipid Storage Modulators in Drosophila S3 Cells;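 as to cell number change: cells counted by Cell Tracker Red CMTPX staining in the red channel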
Details: BODIPY lipid droplet fluorescence, 18-24 h; for cell number change: measured here: cell count max response, cells fed with added oleic acid
How it was run: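 Laser-scanning cytometry quantifies lipid droplet accumulation (500–530 nm total intensity; droplet/cell object ratio) in oleic acid-fed (400 uM added) Drosophila S3 cells treated with a concentration series. 20 uM Triacsin C defined 100% inhibition.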

[1] = measured here: cell number channel AC50, cells fed with added oleic acid
[2] = measured here: lipid fluorescence (Fed channel) AC50, cells fed with added oleic acid

Row | SMILES | cell number change | AC50 [1] | AC50 [2]
1 | COc1ccc(NC(=O)/C(C#N)=C\c2ccc(N3CCOCC3)o2)cc1 | -45% | 29.1 µM [falling, single point] | 23.1 µM [falling, single point]
2 | O=c1c(Cc2c(F)cccc2Cl)c(O)ccn1CCCN1CCOCC1 | 6.1% | – | –
3 | CCCn1c(=O)c2ccccc2n2c(SCCNCCO)nnc12 | – | 0.0651 µM [rising, full curve, poor fit] | –
4 | NC(=O)C1CCN(c2ccc(S(=O)(=O)N3CCCCC3)cn2)CC1 | 117% | 29.1 µM [rising, partial curve] | 29.1 µM [rising, partial curve]
5 | CCOC(=O)CNC(=O)CSc1nc(N(C)C)nc(N2CCOCC2)n1 | 0.834% | – | 0.326 µM [rising, single point]
6 | COc1ccc(C)cc1NC(=O)CSc1nnc(COc2ccc(Cl)cc2)n1Cc1ccco1 | -25.8% | – | 16.4 µM [falling, single point]
7 | O=C(Nc1cccnc1)c1ccc(Cl)c(Cl)c1 | 11.4% | – | –
8 | O=C(COC(=O)CNC(=O)c1ccc(Cl)c([N+](=O)[O-])c1)NCC1CCCO1 (stereo not drawn) | 21.6% | – | 4.11 µM [rising, full curve, poor fit]
9 | O=C(c1cnc2ccccc2n1)N1CCN(c2ccc(C(F)(F)F)cn2)CC1 | 18% | – | 1.16 µM [rising, full curve]
10 | COc1ccc(OCc2cc(C(=O)N3CCC(c4ccccc4)CC3)no2)c(Cl)c1 | – | – | 6.51 µM [falling, single point]
11 | CCCN(CC(=O)Nc1ccccc1OC)C(=O)CSc1ccc(Br)cc1C | 33.8% | 14.6 µM [rising, partial curve, poor fit] | 0.517 µM [rising, full curve, poor fit]
12 | CC(/C=C/c1ccco1)=N\NC(=O)c1cc(C)[nH]n1 | 79.6% | 13 µM [rising, partial curve, poor fit] | 18.4 µM [rising, partial curve]
13 | CCNC(=O)C(=O)NCC(c1cccs1)S(=O)(=O)c1ccc(C)cc1 (stereo not drawn) | -15% | – | –
14 | O=C(COc1ccc(Cl)cc1Cl)Nc1ccc(-c2ccc(N3CCOCC3)nn2)cc1 | – | 3.66 µM [rising, partial curve] | –
15 | Cc1ccc(NS(=O)(=O)c2ccc3[nH]c(=O)[nH]c3c2)cc1 | -7.25% | – | –
16 | CCC(C)NC(=O)CSc1nnc(-c2ccc(C(C)(C)C)cc2)n1C (stereo not drawn) | -30.6% | 0.103 µM [falling, full curve, poor fit] | –
17 | O=C(NCc1ccccc1)C12CC3CC(CC(Cl)(C3)C1)C2 | -13.2% | – | 0.13 µM [falling, full curve, poor fit]
18 | C/C=C/c1ccc(OCc2cc(=O)n3cc(C)ccc3n2)c(OC)c1 | 30% | 1.3 µM [falling, full curve] | 1.16 µM [falling, full curve]
19 | CCOC(=O)CCCNC(=O)COC(=O)c1ccc(O)cc1 | -14.9% | – | 18.4 µM [falling, partial curve]
20 | COCCOC(=O)C1=C(C)NC(=O)NC1c1cc2c(cc1Br)OCO2 (stereo not drawn) | 32.4% | 2.31 µM [rising, partial curve] | –

Gathered by group, the compounds so far with an NH in an aromatic ring.
Row | SMILES | cell number change | AC50 [1] | AC50 [2]
12 | CC(/C=C/c1ccco1)=N\NC(=O)c1cc(C)[nH]n1 | 79.6% | 13 µM [rising, partial curve, poor fit] | 18.4 µM [rising, partial curve]
15 | Cc1ccc(NS(=O)(=O)c2ccc3[nH]c(=O)[nH]c3c2)cc1 | -7.25% | – | –

(continued)

Row | SMILES | cell number change | AC50 [1] | AC50 [2]
21 | Cc1sc2ncnc(N3CCCCC3C)c2c1C (stereo not drawn) | -42.2% | 0.00651 µM [falling, full curve, poor fit] | –
22 | CCOC(=O)Cn1nc(C)n(-c2ccccc2)c1=O | 27.4% | – | 23.1 µM [rising, single point]
23 | O=S(=O)(/C=C/c1ccccc1)Nc1ccc2c(c1)OCO2 | 65.1% | 29.1 µM [rising, single point] | 0.00517 µM [falling, full curve, poor fit]
24 | Cc1ccc(/C=C(\C#N)C(=O)NC(C)c2ccccc2)o1 (stereo not drawn) | 30.7% | 32.6 µM [rising, single point] | –
25 | CCn1c(=O)c(=O)[nH]c2cc(C(=O)NCc3ccc(F)cc3)ccc21 | 9.17% | – | 7.31 µM [falling, partial curve, poor fit]
26 | CC1CCCCC1NC(=S)Nc1ccc(SC(F)F)cc1 (stereo not drawn) | -60.5% | 29.1 µM [falling, single point] | –
27 | CCN1/C(=C2\C(=O)N(C)C(=S)N2c2ccccc2)C=Cc2ccccc21 | 13.5% | – | 0.651 µM [rising, single point]
28 | Cc1cc(NC(=O)CSc2nnc(NC(=O)C3CC(=O)N(c4ccccc4)C3)s2)no1 (stereo not drawn) | 16.7% | – | 0.259 µM [falling, full curve, poor fit]
29 | CC(=O)c1ccc(NC(=O)COC(=O)c2nc(Cl)ccc2Cl)cc1 | -23.7% | 0.411 µM [falling, full curve, poor fit] | –
30 | Cc1ccc(NC(=O)c2cccc3c2C(=O)N(C2CCCCC2)C3)c(Cl)c1 | 16.8% | – | 5.17 µM [rising, partial curve]
31 | CN1C(=O)N(C)C2C1N(CN1CCCCC1)C(=O)N2CN1CCCCC1 (stereo not drawn) | 13.8% | – | –
32 | CCN1C(=O)/C(=C2\SC(=S)N(NC(=O)c3ccccc3O)C2=O)c2ccccc21 | 6.94% | 0.651 µM [falling, full curve, poor fit] | –
33 | CCOC(=O)c1ccc(Nc2ncnc3ccccc23)cc1 | – | 3.26 µM [rising, partial curve, poor fit] | 4.11 µM [rising, partial curve, poor fit]
34 | Clc1ccc2nc(COc3ccccc3)[nH]c2c1 | -8.76% | – | 16.4 µM [falling, single point]
35 | CCOC(=O)N1CCN(Cc2nc(-c3ccccc3)no2)CC1 | 4.19% | – | 20.6 µM [rising, single point]
36 | Cc1cc(C(=O)Nc2cccc(C)c2C)n(-c2ccccc2)n1 | 12.8% | – | –
37 | Cc1ccc(-c2nc(CCNC(=O)c3ccco3)cs2)cc1 | 115% | 20.6 µM [rising, partial curve] | –
38 | COc1ccc(Cl)cc1NC(=S)N(Cc1cccnc1)Cc1ccco1 | -62.8% | 14.6 µM [falling, partial curve, poor fit] | 29.1 µM [falling, partial curve, poor fit]
39 | CC(C)=N/N=C(\N)SCc1ccccc1 | 12.9% | – | 14.6 µM [rising, partial curve, poor fit]
40 | COc1ccc(C(CNC(=O)CNC(=O)c2ccc(F)cc2)N2CCCC2)cc1 (stereo not drawn) | -14% | – | 29.1 µM [rising, single point]

Row | SMILES | cell number change | AC50 [1] | AC50 [2]
41 | COc1ccc(N2CCN(C(=O)c3cc(=O)c4cc(C)ccc4o3)CC2)cc1 | 15.1% | – | 29.1 µM [rising, single point]
42 | O=C(CCn1c(=O)oc2ccccc21)Nc1nc2ccccc2s1 | 59.8% | 6.51 µM [rising, partial curve] | –
43 | Cc1cc(C)cc(N=Cc2c(O)c3ccccc3oc2=O)c1 | 32.4% | 0.231 µM [rising, full curve, poor fit] | –
44 | COc1cc(S(=O)(=O)N2CCCCC2)ccc1NC(=O)c1ccc(F)cc1 | 1.79% | – | 0.82 µM [rising, partial curve]
45 | COc1ccc(N2CCC(CNC(=O)Nc3ccc(C)c(C)c3)C2)cc1 (stereo not drawn) | 35.3% | 23.1 µM [rising, single point] | –
46 | CC(C)CC(=O)NC(C)C(c1cccs1)N1CCOCC1 (stereo not drawn) | -7.56% | – | 6.51 µM [falling, single point]
47 | COc1ccc(N2CCN(S(=O)(=O)c3ccc(Cl)c(C(F)(F)F)c3)CC2)cc1 | -63.3% | 29.1 µM [falling, single point] | 29.1 µM [falling, single point]
48 | O=C(Cc1ccc(F)cc1)Oc1ccc(C(=S)N2CCCC2)cc1 | -9.53% | – | –
49 | CCN1CCCC1CNC(=O)C(=O)Nc1ccc(OC)cc1 (stereo not drawn) | -19.2% | – | 0.231 µM [rising, full curve, poor fit]
50 | O=S(=O)(/N=C(/Nc1ccc(F)c(F)c1F)c1ccccc1)c1ccccc1 | 5.91% | 2.91 µM [rising, single point] | 25.9 µM [falling, partial curve]
51 | COc1cc(C(=O)N2CCCN(C)CC2)cc(OC)c1C | -7.75% | 0.82 µM [falling, full curve, poor fit] | 0.92 µM [falling, full curve, poor fit]
52 | CCC(=O)Nc1ccc(NC(=S)NC(=O)/C=C/c2ccco2)cc1 | -30.3% | 2.59 µM [falling, partial curve] | 2.31 µM [falling, full curve]
53 | COc1ccc(C2/C=C\CN(C(=O)CC(C)C)CC(=O)N2Cc2ccc(F)cc2)cc1 (stereo not drawn) | 10.6% | – | 2.59 µM [rising, single point]
54 | CCCC1Cc2c(sc3ncnc(N)c23)CO1 (stereo not drawn) | -26.1% | – | 1.3 µM [falling, partial curve]
55 | Cc1ccc(C(=O)N2CCN(c3cccc(C)c3C)CC2)cc1S(=O)(=O)N1CCOCC1 | – | – | 0.00461 µM [falling, full curve, poor fit]
56 | Clc1ccc(-c2noc(CCCc3ccccc3)n2)cc1 | – | 6.51 µM [falling, single point] | –
57 | CN(C)c1cc(C(F)(F)F)nc(-c2ccccn2)n1 | 60.2% | 29.1 µM [rising, single point] | 29.1 µM [rising, single point]
58 | COc1ccccc1-c1nc2s/c(=C\c3cccs3)c(=O)n2n1 | -34.4% | 25.9 µM [falling, partial curve, poor fit] | –
59 | CCOCCCNC(=O)/C(C#N)=C/c1ccc(Cl)c([N+](=O)[O-])c1 | -42.6% | – | 0.184 µM [falling, full curve]

Source: PubChem BioAssay AID2685 (National Center for Advancing Translational Sciences (NCATS), 2010)
